{"source": "the supplement of paper PMC4604168 (melanoma cell lines)", "note": "The list shows a part of the results. Repeats are few or missing, and single values can be far off.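 Imaging used 1,536-well plates; nuclei positive for cleaved PARP by antibody were divided by total DNA-stained nuclei to yield the apoptosis fraction. Doses for screening kept most cells viable, and cell lines differ markedly in resting and induced cleaved-PARP levels.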", "data": [{"tested_on": "RVH-421", "assay": "cleaved PARP positive nuclei fraction relative to DMSO control; melanoma cells; higher = more apoptosis", "conditions": "library dose: low library concentration; 72 h", "units": {"cleaved PARP positive nuclei fraction": "%"}, "values": [{"smiles": "O=c1[nH]nc(Sc2ncc([N+](=O)[O-])s2)n1-c1ccc2c(c1)OCCO2", "note": "+ NC(=O)c1ccc(N(C(N)=O)c2c(F)cccc2F)nc1-c1ccc(F)cc1F [VX702] (first compound 0.2 µM, partner dose 0.4 µM)", "cleaved PARP positive nuclei fraction": 104}, {"smiles": "Cc1ccc(Nc2nccc(N(C)c3ccc4c(C)n(C)nc4c3)n2)cc1S(N)(=O)=O", "note": "[Pazopanib] + CO[C@H]1C[C@@H]2CC[C@@H](C)[C@@](O)(O2)C(=O)C(=O)N2CCCC[C@H]2C(=O)O[C@H]([C@H](C)C[C@@H]2CC[C@@H](OCCO)[C@H](OC)C2)CC(=O)[C@H](C)/C=C(\\C)[C@@H](O)[C@@H](OC)C(=O)[C@H](C)C[C@H](C)/C=C/C=C/C=C/1C [everolimus] (first compound 0.4 µM, partner dose 0.02 µM)", "cleaved PARP positive nuclei fraction": 71.9}, {"smiles": "Cc1ccc(Nc2nccc(N(C)c3ccc4c(C)n(C)nc4c3)n2)cc1S(N)(=O)=O", "note": "[Pazopanib] + CCCS(=O)(=O)Nc1ccc(F)c(C(=O)c2c[nH]c3ncc(Cl)cc23)c1F [PLX4720] (first compound 0.4 µM, partner dose 0.08 µM)", "cleaved PARP positive nuclei fraction": 147}, {"smiles": "N#CC[C@H](C1CCCC1)n1cc(-c2ncnc3[nH]ccc23)cn1", "note": "[ruxolitinib] + OCc1c[nH]c2ccccc12 [Indole-3-carbinol] (first compound 1 µM, partner dose 0.8 µM)", "cleaved PARP positive nuclei fraction": 85.7}, {"smiles": "Cc1ccc(Nc2nccc(N(C)c3ccc4c(C)n(C)nc4c3)n2)cc1S(N)(=O)=O", "note": "[Pazopanib] + OCc1c[nH]c2ccccc12 [Indole-3-carbinol] (first compound 0.4 µM, partner dose 0.8 µM)", "cleaved PARP positive nuclei fraction": 132}, {"smiles": "COc1cc([C@@H]2c3cc4c(cc3[C@@H](O[C@@H]3O[C@@H]5CO[C@@H](C)O[C@H]5[C@H](O)[C@H]3O)[C@H]3COC(=O)[C@H]23)OCO4)cc(OC)c1O", "note": "[etoposide] + C[C@]1(O)C[C@@H](c2nc(-c3ccc4ccc(-c5ccccc5)nc4c3)c3c(N)nccn32)C1 [OSI906] (first compound 0.02 µM, partner dose 0.4 µM)", "cleaved PARP positive nuclei fraction": 106}, {"smiles": "N#CC[C@H](C1CCCC1)n1cc(-c2ncnc3[nH]ccc23)cn1", "note": "[ruxolitinib] + CO[C@H]1C[C@@H]2CC[C@@H](C)[C@@](O)(O2)C(=O)C(=O)N2CCCC[C@H]2C(=O)O[C@H]([C@H](C)C[C@@H]2CC[C@@H](OCCO)[C@H](OC)C2)CC(=O)[C@H](C)/C=C(\\C)[C@@H](O)[C@@H](OC)C(=O)[C@H](C)C[C@H](C)/C=C/C=C/C=C/1C [everolimus] (first compound 1 µM, partner dose 0.02 µM)", "cleaved PARP positive nuclei fraction": 71.4}, {"smiles": "Cc1ccc(Nc2nccc(N(C)c3ccc4c(C)n(C)nc4c3)n2)cc1S(N)(=O)=O", "note": "[Pazopanib] + Cn1nnc2c(C(N)=O)ncn2c1=O [temozolomide] (first compound 0.4 µM, partner dose 2 µM)", "cleaved PARP positive nuclei fraction": 31.5}, {"smiles": "O=c1[nH]nc(Sc2ncc([N+](=O)[O-])s2)n1-c1ccc2c(c1)OCCO2", "note": "+ CCCS(=O)(=O)Nc1ccc(F)c(C(=O)c2c[nH]c3ncc(Cl)cc23)c1F [PLX4720] (first compound 0.2 µM, partner dose 0.08 µM)", "cleaved PARP positive nuclei fraction": 60.7}, {"smiles": "Cc1ccc(Nc2nccc(N(C)c3ccc4c(C)n(C)nc4c3)n2)cc1S(N)(=O)=O", "note": "[Pazopanib] + CC(=O)c1c(C)c2cnc(Nc3ccc(N4CCNCC4)cn3)nc2n(C2CCCC2)c1=O [palbociclib] (first compound 0.4 µM, partner dose 0.04 µM)", "cleaved PARP positive nuclei fraction": 93.8}, {"smiles": "Cc1cn(-c2cc(NC(=O)c3ccc(C)c(Nc4nccc(-c5cccnc5)n4)c3)cc(C(F)(F)F)c2)cn1", "note": "[nilotinib] + CN(c1ncccc1CNc1nc(Nc2ccc3c(c2)CC(=O)N3)ncc1C(F)(F)F)S(C)(=O)=O [PF562271] (first compound 0.2 µM, partner dose 0.08 µM)", "cleaved PARP positive nuclei fraction": 34.3}, {"smiles": "CC[C@]1(O)C[C@H]2CN(CCc3c([nH]c4ccccc34)[C@@](C(=O)OC)(c3cc4c(cc3OC)N(C=O)[C@H]3[C@@](O)(C(=O)OC)[C@H](OC(C)=O)[C@]5(CC)C=CCN6CC[C@]43[C@@H]65)C2)C1", "note": "[vincristine] + COCC[n+]1c2c(n(Cc3cnccn3)c1C)C(=O)c1ccccc1C2=O [YM155] (first compound 0.0001 µM, partner dose 0.0004 µM)", "cleaved PARP positive nuclei fraction": 53.8}, {"smiles": "Cc1cn(-c2cc(NC(=O)c3ccc(C)c(Nc4nccc(-c5cccnc5)n4)c3)cc(C(F)(F)F)c2)cn1", "note": "[nilotinib] + O=C(O)[C@@H]1[O][Sb](=[O])([O][Sb]2(=[O])[O][C@H]([C@H](O)CO)[C@H](O)[C@H](C(=O)O)[O]2)[O][C@H]([C@H](O)CO)[C@@H]1O [stibogluconate] (first compound 0.2 µM, partner dose 2 µM)", "cleaved PARP positive nuclei fraction": 53.8}, {"smiles": "COc1cc([C@@H]2c3cc4c(cc3[C@@H](O[C@@H]3O[C@@H]5CO[C@@H](C)O[C@H]5[C@H](O)[C@H]3O)[C@H]3COC(=O)[C@H]23)OCO4)cc(OC)c1O", "note": "[etoposide] + CCCCCCCCCCCCCCCCCCOP(=O)([O-])OC1CC[N+](C)(C)CC1 [Perifosine] (first compound 0.02 µM, partner dose 0.4 µM)", "cleaved PARP positive nuclei fraction": 137}, {"smiles": "O=C(/C=C/c1cccnc1)NCCCCC1CCN(C(=O)c2ccccc2)CC1", "note": "+ CS(=O)(=O)c1ccc(C(=O)Nc2ccc(Cl)c(-c3ccccn3)c2)c(Cl)c1 [vismodegib] (first compound 0.01 µM, partner dose 1 µM)", "cleaved PARP positive nuclei fraction": 367}, {"smiles": "O=C(Nc1cc(C(F)(F)F)cc(C(F)(F)F)c1)c1cc(Cl)ccc1O", "note": "+ CCCCCCCCc1ccc(CCC(N)(CO)CO)cc1 [fingolimod] (first compound 0.016 µM, partner dose 2 µM)", "cleaved PARP positive nuclei fraction": 47.7}, {"smiles": "CC[C@]1(O)C[C@H]2CN(CCc3c([nH]c4ccccc34)[C@@](C(=O)OC)(c3cc4c(cc3OC)N(C=O)[C@H]3[C@@](O)(C(=O)OC)[C@H](OC(C)=O)[C@]5(CC)C=CCN6CC[C@]43[C@@H]65)C2)C1", "note": "[vincristine] + CCCCCCCCCCCCCCCCCCOP(=O)([O-])OC1CC[N+](C)(C)CC1 [Perifosine] (first compound 0.0001 µM, partner dose 0.4 µM)", "cleaved PARP positive nuclei fraction": 48.2}, {"smiles": "Cc1cc(Nc2cc(N3CCN(C)CC3)nc(Sc3ccc(NC(=O)C4CC4)cc3)n2)n[nH]1", "note": "[Tozasertib] + C#Cc1cccc(Nc2ncnc3cc(OCCOC)c(OCCOC)cc23)c1 [erlotinib] (first compound 0.006 µM, partner dose 0.8 µM)", "cleaved PARP positive nuclei fraction": 55.6}, {"smiles": "Cc1cc(Nc2cc(N3CCN(C)CC3)nc(Sc3ccc(NC(=O)C4CC4)cc3)n2)n[nH]1", "note": "[Tozasertib] + CO[C@H]1C[C@@H]2CC[C@@H](C)[C@@](O)(O2)C(=O)C(=O)N2CCCC[C@H]2C(=O)O[C@H]([C@H](C)C[C@@H]2CC[C@@H](OCCO)[C@H](OC)C2)CC(=O)[C@H](C)/C=C(\\C)[C@@H](O)[C@@H](OC)C(=O)[C@H](C)C[C@H](C)/C=C/C=C/C=C/1C [everolimus] (first compound 0.006 µM, partner dose 0.02 µM)", "cleaved PARP positive nuclei fraction": 122}, {"smiles": "Cc1ccc(Nc2nccc(N(C)c3ccc4c(C)n(C)nc4c3)n2)cc1S(N)(=O)=O", "note": "[Pazopanib] + C#Cc1cccc(Nc2ncnc3cc(OCCOC)c(OCCOC)cc23)c1 [erlotinib] (first compound 0.4 µM, partner dose 0.8 µM)", "cleaved PARP positive nuclei fraction": 100}, {"smiles": "CCCCCCCCCCCCCCCCCCOP(=O)([O-])OC1CC[N+](C)(C)CC1", "note": "[Perifosine] + C=C(c1ccc(C(=O)O)cc1)c1cc2c(cc1C)C(C)(C)CCC2(C)C [Bexarotene] (first compound 0.4 µM, partner dose 2 µM)", "cleaved PARP positive nuclei fraction": 105}, {"smiles": "O=c1[nH]nc(Sc2ncc([N+](=O)[O-])s2)n1-c1ccc2c(c1)OCCO2", "note": "+ Cc1cc(Nc2cc(N3CCN(C)CC3)nc(/C=C/c3ccccc3)n2)n[nH]1 [ENMD2076] (first compound 0.2 µM, partner dose 0.04 µM)", "cleaved PARP positive nuclei fraction": 87.9}, {"smiles": "CCCCCCCCCCCCCCCCCCOP(=O)([O-])OC1CC[N+](C)(C)CC1", "note": "[Perifosine] + Clc1ccc(Nc2nnc(Cc3ccncc3)c3ccccc23)cc1 [vatalanib] (first compound 0.4 µM, partner dose 2 µM)", "cleaved PARP positive nuclei fraction": 96.2}, {"smiles": "Cc1cn(-c2cc(NC(=O)c3ccc(C)c(Nc4nccc(-c5cccnc5)n4)c3)cc(C(F)(F)F)c2)cn1", "note": "[nilotinib] + Cn1nnc2c(C(N)=O)ncn2c1=O [temozolomide] (first compound 0.2 µM, partner dose 2 µM)", "cleaved PARP positive nuclei fraction": 102}]}]}
